Results are given in words; binding and its absence hold for the method and conditions named. In cells and extracts the contact can be indirect. Some entries that bind do so weakly or less than the wild type.
Molecular target: Flag-tagged GPR146 (UniProt Q96CH1)
Experiment: co-IP

Protein sequences, listed by entry. Tags and fused reporters are not part of them. Residues count along the entry.
UniProt Q96CH1: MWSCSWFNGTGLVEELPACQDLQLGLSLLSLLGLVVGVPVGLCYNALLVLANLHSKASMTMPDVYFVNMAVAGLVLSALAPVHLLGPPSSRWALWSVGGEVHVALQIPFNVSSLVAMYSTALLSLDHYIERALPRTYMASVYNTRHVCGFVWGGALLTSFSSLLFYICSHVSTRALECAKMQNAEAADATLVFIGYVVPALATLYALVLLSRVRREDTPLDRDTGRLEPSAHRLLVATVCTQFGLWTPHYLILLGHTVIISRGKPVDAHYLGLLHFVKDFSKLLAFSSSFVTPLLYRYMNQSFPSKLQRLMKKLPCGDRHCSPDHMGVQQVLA
UniProt Q9JM99, residues 25-1054: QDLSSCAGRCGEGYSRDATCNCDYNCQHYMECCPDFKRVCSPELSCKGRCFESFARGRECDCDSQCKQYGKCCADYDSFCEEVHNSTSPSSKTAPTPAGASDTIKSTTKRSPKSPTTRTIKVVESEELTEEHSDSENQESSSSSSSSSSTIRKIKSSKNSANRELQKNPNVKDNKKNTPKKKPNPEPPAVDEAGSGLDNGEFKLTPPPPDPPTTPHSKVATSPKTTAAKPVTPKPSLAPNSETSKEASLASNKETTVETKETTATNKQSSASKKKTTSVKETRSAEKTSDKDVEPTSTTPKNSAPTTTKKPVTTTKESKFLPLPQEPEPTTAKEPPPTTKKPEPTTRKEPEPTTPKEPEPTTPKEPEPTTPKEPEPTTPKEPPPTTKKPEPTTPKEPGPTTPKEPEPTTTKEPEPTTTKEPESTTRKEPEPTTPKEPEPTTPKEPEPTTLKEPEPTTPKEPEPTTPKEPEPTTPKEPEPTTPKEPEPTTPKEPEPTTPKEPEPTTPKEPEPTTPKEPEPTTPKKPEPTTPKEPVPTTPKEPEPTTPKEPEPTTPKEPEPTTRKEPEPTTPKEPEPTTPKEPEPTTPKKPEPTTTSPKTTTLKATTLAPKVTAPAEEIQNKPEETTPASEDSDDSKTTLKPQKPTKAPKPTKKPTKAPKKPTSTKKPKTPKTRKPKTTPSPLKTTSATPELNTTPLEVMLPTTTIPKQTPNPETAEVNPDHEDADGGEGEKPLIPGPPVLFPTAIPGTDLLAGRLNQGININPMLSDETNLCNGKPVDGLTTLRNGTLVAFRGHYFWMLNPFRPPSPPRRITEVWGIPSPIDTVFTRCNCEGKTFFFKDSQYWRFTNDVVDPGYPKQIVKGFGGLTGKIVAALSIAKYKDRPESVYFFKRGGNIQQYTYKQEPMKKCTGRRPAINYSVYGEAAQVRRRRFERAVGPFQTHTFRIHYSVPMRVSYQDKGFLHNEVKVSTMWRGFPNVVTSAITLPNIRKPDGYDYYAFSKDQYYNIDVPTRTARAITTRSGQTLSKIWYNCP

binding: binds
Substance: proteoglycan 4 (Prg4) (from UniProt Q9JM99 25-1054)

Reference: doi:10.64898/2025.12.30.697005
